Results are given in words; binding and its absence hold for the method and conditions named. Binding seen in cells or lysates may run through a third protein. Here binding means that the protein was enriched with, or labelled near, the bait; the list need not be complete.
T1: HDA15 (endogenous) (Arabidopsis thaliana (endogenous in Col-0)) (UniProt Q8GXJ1)
T1 sequence: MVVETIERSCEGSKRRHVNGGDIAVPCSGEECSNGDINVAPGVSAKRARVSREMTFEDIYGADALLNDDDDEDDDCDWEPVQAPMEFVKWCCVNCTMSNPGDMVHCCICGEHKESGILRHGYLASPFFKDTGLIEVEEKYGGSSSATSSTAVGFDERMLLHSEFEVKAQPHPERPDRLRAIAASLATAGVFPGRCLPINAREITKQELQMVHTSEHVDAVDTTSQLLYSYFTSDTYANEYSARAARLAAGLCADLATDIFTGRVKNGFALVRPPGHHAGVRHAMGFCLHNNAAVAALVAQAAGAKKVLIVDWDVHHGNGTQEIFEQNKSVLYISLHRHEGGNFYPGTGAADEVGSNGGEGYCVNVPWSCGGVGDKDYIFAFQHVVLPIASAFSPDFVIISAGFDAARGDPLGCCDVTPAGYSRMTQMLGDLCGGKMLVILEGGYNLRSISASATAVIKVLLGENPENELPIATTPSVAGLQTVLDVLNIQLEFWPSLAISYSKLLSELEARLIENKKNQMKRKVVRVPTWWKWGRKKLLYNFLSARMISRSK

B1: SET DOMAIN PROTEIN 16 (SDG16) (protein, UniProt Q9SUE7 1-1027)
chain: MIIKRKFKTQIPSLERCKLGNESRKKKRKLNLGGGGYYYPLNLLGEIAAGIVPGNGRNGFSASWCTEVTKPVEVEESLSKRRSDSGTVRDSPPAEVSRPPLVRTSRGRIQVLPSRFNDSVLDNWRKDSKSDCDLEEEEIECRNEKVVSFRVPKATNLKSKELDRKSKYSALCKEERFHEQHNDEARARVDEKLPNKKGTFGPENFYSGDLVWAKSGRNEPFWPAIVIDPMTQAPELVLRSCIPDAACVVFFGHSGNENERDYAWVRRGMIFPFVDYVARFQEQPELQGCKPGNFQMALEEAFLADQGFTEKLMHDIHLAAGNSTFDDSFYRWIQETAVSNQELNNNAPRQGLLKKHRNPLACAGCETVISFEMAKKMKDLIPGDQLLCKPCSRLTKSKHICGICKKIRNHLDNKSWVRCDGCKVRIHAECDQISDRHLKDLRETDYYCPTCRAKFNFDLSDSEKQNSKSKVAKGDGQMVLPDKVIVVCAGVEGVYFPRLHLVVCKCGSCGPKKKALSEWERHTGSKSKNWKTSVKVKSSKLALEDWMMNLAELHANATAAKVPKRPSIKQRKQRLLAFLSETYEPVNAKWTTERCAVCRWVEDWDYNKIIICNRCQIAVHQECYGARHVRDFTSWVCKACERPDIKRECCLCPVKGGALKPTDVETLWVHVTCAWFQPEVCFASEEKMEPAVGILSIPSTNFVKICVICKQIHGSCTQCCKCSTYYHAMCASRAGYRMELHCLEKNGQQITKMVSYCAYHRAPNPDNVLIIQTPSGAFSAKSLVQNKKKGGSRLISLIREDDEAPAENTITCDPFSAARCRVFKRKINSKKRIEEEAIPHHTRGPRHHASAAIQTLNTFRHVPEEPKSFSSFRERLHHLQRTEMDRVCFGRSGIHGWGLFARRNIQEGEMVLEYRGEQVRGSIADLREARYRRVGKDCYLFKISEEVVVDATDKGNIARLINHSCTPNCYARIMSVGDEESRIVLIAKANVAVGEELTYDYLFDPDEAEELKVPCLCKAPNCRKFMN
B2: SU(VAR)3-9-RELATED PROTEIN 5 (SUVR5) (protein, UniProt O64827 1-1382)
chain: MEVKMDELVLDVDVEEATGSELLVKSEPEADLNAVKSSTDLVTVTGPIGKNGEGESSPSEPKWLQQDEPIALWVKWRGKWQAGIRCAKADWPLTTLRGKPTHDRKKYCVIFFPHTKNYSWADMQLVRSINEFPDPIAYKSHKIGLKLVKDLTAARRYIMRKLTVGMFNIVDQFPSEVVSEAARDIIIWKEFAMEATRSTSYHDLGIMLVKLHSMILQRYMDPIWLENSFPLWVQKCNNAVNAESIELLNEEFDNCIKWNEVKSLSESPMQPMLLSEWKTWKHDIAKWFSISRRGVGEIAQPDSKSVFNSDVQASRKRPKLEIRRAETTNATHMESDTSPQGLSAIDSEFFSSRGNTNSPETMKEENPVMNTPENGLDLWDGIVVEAGGSQFMKTKETNGLSHPQDQHINESVLKKPFGSGNKSQQCIAFIESKGRQCVRWANEGDVYCCVHLASRFTTKSMKNEGSPAVEAPMCGGVTVLGTKCKHRSLPGFLYCKKHRPHTGMVKPDDSSSFLVKRKVSEIMSTLETNQCQDLVPFGEPEGPSFEKQEPHGATSFTEMFEHCSQEDNLCIGSCSENSYISCSEFSTKHSLYCEQHLPNWLKRARNGKSRIISKEVFVDLLRGCLSREEKLALHQACDIFYKLFKSVLSLRNSVPMEVQIDWAKTEASRNADAGVGEFLMKLVSNERERLTRIWGFATGADEEDVSLSEYPNRLLAITNTCDDDDDKEKWSFSGFACAICLDSFVRRKLLEIHVEERHHVQFAEKCMLLQCIPCGSHFGDKEQLLVHVQAVHPSECKSLTVASECNLTNGEFSQKPEAGSSQIVVSQNNENTSGVHKFVCKFCGLKFNLLPDLGRHHQAEHMGPSLVGSRGPKKGIRFNTYRMKSGRLSRPNKFKKSLGAVSYRIRNRAGVNMKRRMQGSKSLGTEGNTEAGVSPPLDDSRNFDGVTDAHCSVVSDILLSKVQKAKHRPNNLDILSAARSACCRVSVETSLEAKFGDLPDRIYLKAAKLCGEQGVQVQWHQEGYICSNGCKPVKDPNLLHPLIPRQENDRFGIAVDAGQHSNIELEVDECHCIMEAHHFSKRPFGNTAVLCKDISFGKESVPICVVDDDLWNSEKPYEMPWECFTYVTNSILHPSMDLVKENLQLRCSCRSSVCSPVTCDHVYLFGNDFEDARDIYGKSMRCRFPYDGKQRIILEEGYPVYECNKFCGCSRTCQNRVLQNGIRAKLEVFRTESKGWGLRACEHILRGTFVCEYIGEVLDQQEANKRRNQYGNGDCSYILDIDANINDIGRLMEEELDYAIDATTHGNISRFINHSCSPNLVNHQVIVESMESPLAHIGLYASMDIAAGEEITRDYGRRPVPSEQENEHPCHCKATNCRGLLS
B3: MYB2 (protein, UniProt Q39028 1-273)
chain: MEDYERINSNSPTHEEDSDVRKGPWTEEEDAILVNFVSIHGDARWNHIARSSGLKRTGKSCRLRWLNYLRPDVRRGNITLEEQFMILKLHSLWGNRWSKIAQYLPGRTDNEIKNYWRTRVQKQAKHLRCDVNSNLFKETMRNVWMPRLVERINAQSLPTTCEQVESMITDPSQPVNEPSPVEPGFVQFSQNHHQQFVPATELSATSSNSPAETFSDVRGGVVNGSGYDPSGQTGFGEFNDWGCVGGDNMWTDEESFWFLQDQFCPDTTSYSYN
B4: WRKY63 (protein, UniProt Q9C6H5 1-241)
chain: MFSNIDHKAVAALLHGQGCANILKTVLDNCKVSSVSTEPLINTILDSFSLALSSVNSPNRQPHHESSSRDMAGLVPQRSSKKKICGVKGLEIYRDDSPNPRLDDGFTWRKYGQKTIKTSLYQRCYYRCAYAKDQNCYATKRVQMIQDSPPVYRTTYLGQHTCKAFGVHDNTYGSEMINFDQVVSESVMRQLATIGEQAVLMEDEANHIMNQEYDINDYLVDDEVFWGNEFPLFSSEDLMLF
B5: MAC3B (endogenous) (protein, UniProt O22785 1-525)
chain: MNCAISGEVPVEPVVSTKSGLLFERRLIERHISDYGKCPVTGEPLTIDDIVPIKTGEIIKPKTLHTASIPGLLGTFQNEWDGLMLSNFALEQQLHTARQELSHALYQHDSACRVIARLKKERDEARQLLAEVERHIPAAPEAVTANAALSNGKRAAVDEELGPDAKKLCPGISAEIITELTDCNAALSQKRKKRQIPQTLASIDTLERFTQLSSHPLHKTNKPGICSMDILHSKDVIATGGVDATAVLFDRPSGQILSTLTGHSKKVTSVKFVGDSDLVLTASADKTVRIWRNPGDGNYACGYTLNDHSAEVRAVTVHPTNKYFVSASLDGTWCFYDLSSGSCLAQVSDDSKNVDYTAAAFHPDGLILGTGTSQSVVKIWDVKSQANVAKFDGHTGEVTAISFSENGYFLATAAEDGVRLWDLRKLRNFKSFLSADANSVEFDPSGSYLGIAASDIKVYQTASVKAEWNLIKTLPDLSGTGKATCVKFGSDAQYVAVGSMDRNLRIFGLPGDEKANVDDDSAQDS
B6: CELL DIVISION CYCLE5 (CDC5) (protein, UniProt P92948 1-844)
chain: MRIMIKGGVWKNTEDEILKAAVMKYGKNQWARISSLLVRKSAKQCKARWYEWLDPSIKKTEWTREEDEKLLHLAKLLPTQWRTIAPIVGRTPSQCLERYEKLLDAACTKDENYDAADDPRKLRPGEIDPNPEAKPARPDPVDMDEDEKEMLSEARARLANTRGKKAKRKAREKQLEEARRLASLQKRRELKAAGIDGRHRKRKRKGIDYNAEIPFEKRAPAGFYDTADEDRPADQVKFPTTIEELEGKRRADVEAHLRKQDVARNKIAQRQDAPAAILQANKLNDPEVVRKRSKLMLPPPQISDHELEEIAKMGYASDLLAENEELTEGSAATRALLANYSQTPRQGMTPMRTPQRTPAGKGDAIMMEAENLARLRDSQTPLLGGENPELHPSDFTGVTPRKKEIQTPNPMLTPSMTPGGAGLTPRIGLTPSRDGSSFSMTPKGTPFRDELHINEDMDMHESAKLERQRREEARRSLRSGLTGLPQPKNEYQIVAQPPPEESEEPEEKIEEDMSDRIAREKAEEEARQQALLKKRSKVLQRDLPRPPAASLAVIRNSLLSADGDKSSVVPPTPIEVADKMVREELLQLLEHDNAKYPLDDKAEKKKGAKNRTNRSASQVLAIDDFDENELQEADKMIKEEGKFLCVSMGHENKTLDDFVEAHNTCVNDLMYFPTRSAYELSSVAGNADKVAAFQEEMENVRKKMEEDEKKAEHMKAKYKTYTKGHERRAETVWTQIEATLKQAEIGGTEVECFKALKRQEEMAASFRKKNLQEEVIKQKETESKLQTRYGNMLAMVEKAEEIMVGFRAQALKKQEDVEDSHKLKEAKLATGEEEDIAIAMEASA

Target: T1, HDA15 (endogenous) (Arabidopsis thaliana (endogenous in Col-0))
Assay: affinity purification with mass spectrometry

Binder | binding
B1 | binds
B2 | binds
B3 | binds
B4 | binds
B5 | binds
B6 | binds
